Positions count from the first letter of the chain named. No constants are given. Whether binding was seen depends on the method and setting. Binding seen in cells or lysates may run through a third protein. A result given as binding can be weak or reduced; the word gives no strength. Sequences can lack the tags named with a protein.
How the values were obtained:
[1] = target: T1, V5-tagged OTUD1 C320A (inactivated mutant) (UniProt Q5VV17); experiment: co-IP; 293T cells cotransfected with tagged OTUD1 and tagged AIF; anti-Flag or anti-V5 magnetic beads, overnight at 4 °C; immunoblot
T1 sequence: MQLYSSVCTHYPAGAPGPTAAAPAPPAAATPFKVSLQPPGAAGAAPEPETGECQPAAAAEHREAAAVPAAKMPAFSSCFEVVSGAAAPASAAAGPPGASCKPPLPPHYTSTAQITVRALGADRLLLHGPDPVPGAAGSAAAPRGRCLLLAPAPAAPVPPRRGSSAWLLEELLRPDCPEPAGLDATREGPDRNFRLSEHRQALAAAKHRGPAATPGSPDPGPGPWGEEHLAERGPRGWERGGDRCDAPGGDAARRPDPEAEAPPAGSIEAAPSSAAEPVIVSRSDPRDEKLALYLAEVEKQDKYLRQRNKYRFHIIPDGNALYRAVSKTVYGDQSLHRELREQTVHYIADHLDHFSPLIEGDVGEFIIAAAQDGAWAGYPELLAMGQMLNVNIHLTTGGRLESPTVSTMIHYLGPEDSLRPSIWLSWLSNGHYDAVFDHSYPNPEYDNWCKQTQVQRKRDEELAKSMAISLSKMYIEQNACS

Sequences of proteins named here, by UniProt entry; tags and fusion partners are left off. A change or cut given only in a name is not applied to a line headed by its entry.
UniProt O95831: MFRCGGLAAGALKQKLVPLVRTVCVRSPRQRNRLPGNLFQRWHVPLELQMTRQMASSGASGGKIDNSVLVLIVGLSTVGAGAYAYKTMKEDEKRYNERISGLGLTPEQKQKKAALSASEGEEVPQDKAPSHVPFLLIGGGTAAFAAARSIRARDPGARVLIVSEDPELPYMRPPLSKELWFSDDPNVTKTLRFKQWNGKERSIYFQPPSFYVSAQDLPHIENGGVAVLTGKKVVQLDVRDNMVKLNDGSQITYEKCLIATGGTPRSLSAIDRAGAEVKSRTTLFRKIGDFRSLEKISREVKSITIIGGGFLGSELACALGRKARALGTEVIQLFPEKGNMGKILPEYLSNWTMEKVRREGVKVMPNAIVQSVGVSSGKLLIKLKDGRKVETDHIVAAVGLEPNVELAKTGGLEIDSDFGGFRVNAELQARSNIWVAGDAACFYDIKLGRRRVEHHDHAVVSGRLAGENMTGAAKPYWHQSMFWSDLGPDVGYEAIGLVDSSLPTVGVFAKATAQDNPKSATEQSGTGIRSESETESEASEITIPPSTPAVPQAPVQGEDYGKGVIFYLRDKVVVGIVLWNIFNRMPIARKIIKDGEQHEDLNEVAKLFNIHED

V5-tagged OTUD1 = target: T2, V5-tagged OTUD1 (UniProt Q5VV17); experiment: as above
T2 sequence: T1 sequence with A320C

[2] = target: T3, Flag-tagged OTU deubiquitinase 1 (OTUD1) (UniProt Q5VV17); experiment: pull-down; in vitro pulldown (legend: in vitro co-IP) with anti-Flag magnetic beads; GST-tagged protein purified from E. coli, preparation of the Flag-tagged protein not told
T3 sequence: T1 sequence with A320C

[3] = target: Ala-rich domain of OTUD1 (truncated mutant); experiment: co-IP; co-IP with truncated mutants of OTUD1, AIF and DCAF10; cells, tags and beads only in Figures S3 and S7

Myc-tagged AIF (from UniProt O95831)
binding [1]: binds | binding (V5-tagged OTUD1): binds

GST-tagged AIF (from UniProt O95831)
binding [2]: binds

B1: DCAF10 (co-IPs of Figure 6E-G and Figure S7; tag not told in the text) (protein, UniProt Q5QP82 1-559)
chain: MFPFGPHSPGGDGSAGAGAEEPTPHEGQAAATGPPSPLHPGADATHPPPPARSPRRPGAPSLSPAPRSGELGLPGAPESSTASAPGEPSPPSPPCRRPGPDCRAKSRGRHGLGAGLGGPGARLFGWLKERSLGRGLFVDPARDNFRTMTSLYGSIHPADSVYLSTRTHGAVFNLEYSPDGSVLTVACEQTEVLLFDPISSKHIKTLSEAHEDCVNNIRFLDNRLFATCSDDTTIALWDLRKLNTKVCTLHGHTSWVKNIEYDTNTRLLVTSGFDGNVIIWDTNRYTEDGCPHKKFFHTRFLMRMRLTPDCSKMLISTSSGYLLILHDLDLTKSLEVGSYPILRARRTTSSSDLTTSSSSSGPRVSGSPCHHSDSNSSEKHMSRASQREGVSPRNSLEVVTPEVLGESDHGNCITSLQLHPKGWATLLRCSSNSDDEECTCVYEFQEGAPVRPVSPRCSLRLTHYIEEANVGRGYIKELCFSPDGRMISSPHGYGIRLLGFDKQCSELVDCLPKEASPLRVIRSLYSHNDVVLTTKFSPTHCQIASGCLSGRVSLYQPKF
binding [3]: binds
